No constants are given. Whether binding was seen depends on the method and setting. Binding seen in cells or lysates may run through a third protein. Binding can be weak; no strength is given.
Legend:
Assay in all cases: pull-down; CcmF:6×His (C-terminal tag) co-expressed with the complete System I pathway in E. coli Δccm (RK103) and affinity purified; 5 µg of purified protein separated by SDS-PAGE; immunoblots with α-CcmH and α-CcmE, heme stain for holoCcmE
[1] = target: CcmF:6×His G237C (E. coli) (UniProt P33927)
[2] = target: CcmF:6×His N247C (E. coli) (UniProt P33927)
[3] = target: CcmF:6×His Y231C (E. coli) (UniProt P33927)
[4] = target: CcmF:6×His wild type (E. coli) (UniProt P33927)
[5] = target: CcmF:6×His W242A (E. coli) (UniProt P33927)
[6] = target: CcmF:6×His A228C (E. coli) (UniProt P33927)
[7] = target: CcmF:6×His F241C (E. coli) (UniProt P33927)
[8] = target: CcmF:6×His N247A (E. coli) (UniProt P33927)
[9] = target: CcmF:6×His L234C (E. coli) (UniProt P33927)
[10] = target: CcmF:6×His Y231A (E. coli) (UniProt P33927)
[11] = target: CcmF:6×His E233C (E. coli) (UniProt P33927)
[12] = target: CcmF:6×His G237A (E. coli) (UniProt P33927)
[13] = target: CcmF:6×His L234A (E. coli) (UniProt P33927)
[14] = target: CcmF:6×His A248C (E. coli) (UniProt P33927)
[15] = target: CcmF:6×His F241A (E. coli) (UniProt P33927)
[16] = target: CcmF:6×His G235C (E. coli) (UniProt P33927)
[17] = target: CcmF:6×His W239C (E. coli) (UniProt P33927)
[18] = target: CcmF:6×His W240A (E. coli) (UniProt P33927)

Protein sequences, listed by entry. Tags and fused reporters are not part of them. Lines headed by an entry give the natural chain unless they say otherwise; changes in a name come on top.
UniProt P33927: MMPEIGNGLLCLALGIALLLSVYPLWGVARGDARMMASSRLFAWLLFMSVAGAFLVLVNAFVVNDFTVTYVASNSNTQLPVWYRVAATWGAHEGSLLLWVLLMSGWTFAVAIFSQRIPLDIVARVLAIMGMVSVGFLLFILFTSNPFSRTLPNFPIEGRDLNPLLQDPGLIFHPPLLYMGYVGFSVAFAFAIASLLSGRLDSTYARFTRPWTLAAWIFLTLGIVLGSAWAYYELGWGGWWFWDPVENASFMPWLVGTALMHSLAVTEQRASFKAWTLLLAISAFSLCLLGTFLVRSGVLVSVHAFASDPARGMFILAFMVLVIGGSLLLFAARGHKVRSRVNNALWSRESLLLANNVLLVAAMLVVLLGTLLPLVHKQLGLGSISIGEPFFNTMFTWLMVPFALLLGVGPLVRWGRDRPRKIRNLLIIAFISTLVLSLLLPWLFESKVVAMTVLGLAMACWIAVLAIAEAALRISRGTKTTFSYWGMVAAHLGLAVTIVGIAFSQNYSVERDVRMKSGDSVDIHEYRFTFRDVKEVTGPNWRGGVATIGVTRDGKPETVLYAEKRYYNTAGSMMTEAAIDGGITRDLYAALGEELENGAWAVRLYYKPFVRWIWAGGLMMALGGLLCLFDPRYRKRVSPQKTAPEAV

Measured: binding

B1: CcmH (protein, UniProt P0ABM9 19-350)
chain: TIDVLQFKDEAQEQQFRQLTEELRCPKCQNNSIADSNSMIATDLRQKVYELMQEGKSKKEIVDYMVARYGNFVTYDPPLTPLTVLLWVLPVVAIGIGGWVIYARSRRRVRVVPEAFPEQSVPEGKRAGYVVYLPGIVVALIVAGVSYYQTGNYQQVKIWQQATAQAPALLDRALDPKADPLNEEEMSRLALGMRTQLQKNPGDIEGWIMLGRVGMALGNASIATDAYATAYRLDPKNSDAALGYAEALTRSSDPNDNRLGGELLRQLVRTDHSNIRVLSMYAFNAFEQQRFGEAVAAWEMMLKLLPANDTRRAVIERSIAQAMQHLSPQESK
binds: [1] | [2] | [3] | [4] | [5] | [6] | [7] | [8] | [9] | [10] | [11] | [12] | [13] | [14] | [15] | [16] | [17] | [18]

Source: PMC10746174
